Assay results reported in PMC8945123 (ACS Omega, 2022).

How the values were obtained:
[1] = PAMPA-BBB permeation assay; details: prediction of BBB penetration from Pe
[2] = Neurotoxicity MTT assay on neuroblastoma SH-SY5Y cells; type: cell-based; details: human

With COc1cc2c(cc1OC)C(=O)C(CC1CCN(Cc3ccccc3)CC1)C2 (centres unmarked) [donepezil, reference compound] the “prediction (PAMPA-BBB) (CNS+, CNS–)” value [1] was “CNS+ (‘CNS+’ (prediction of high BBB permeation); Pe (10^–6 cm/s) > 4.39)”, the viability at 1 µM [2] was 97 ± 1.18% and the viability at 10 µM [2] was 94.8 ± 1.29%. For the same molecule, the viability at 20 µM [2] was 82.4 ± 1.03% and the viability at 40 µM [2] was 76.6 ± 1.37%.
